Experimental data: US20210340217A1, “NOVEL PEPTIDES AND COMBINATION OF PEPTIDES FOR USE IN IMMUNOTHERAPY AGAINST OVARIAN CANCER AND OTHER CANCERS” (Immatics Biotechnologies GmbH, priority 2017, published 2021)

The substances below were run on source genes in OC tumors compared to a panel of normal tissues (assay: Expression profiling of genes encoding the peptides (RNAseq), expression scores). Conditions: expression score of source gene.
Parameters: species or system human; key: very highly over-expressed in OC tumors compared to a panel of normal tissues (+++); highly over-expressed in OC tumors compared to a panel of normal tissues (++); over-expressed in OC tumors compared to a panel of normal tissues (+)

Row | Substance | Gene Expression
1 | 154: peptide found in CRABP2 (gene looked up) (MLRKIAVAA; listed as Homo sapiens) [compound 154] | ++
2 | 312: peptide found in HTR3A (gene looked up) (LPYFREFSM; listed as Homo sapiens) [compound 312] | +++
3 | 23: peptide found in ESR1 (gene looked up) (GMMKGGIRK; listed as Homo sapiens) [compound 23] | +++
4 | 248: peptide found in MSLN (gene looked up) (SVIQHLGY; listed as Homo sapiens) [compound 248] | ++
5 | 272: peptide found in MSLN (gene looked up) (RQPERTILRPR; listed as Homo sapiens) [compound 272] | ++
6 | 131: peptide found in MSLN (gene looked up) (APTEDLKAL; listed as Homo sapiens) [compound 131] | ++
7 | 270: peptide found in MMP12 (gene looked up) (AVFNPRFYRTY; listed as Homo sapiens) [compound 270] | +++
8 | 194: peptide found in MAGEA11 (gene looked up) (KEVDPTSHSY; listed as Homo sapiens) [compound 194] | +++
9 | 303: peptide found in CLDN6 (gene looked up) (LPMWKVTAF; listed as Homo sapiens) [compound 303] | +++
10 | 413: peptide found in IGF2BP3 (gene looked up) (IEALSGKIEL; listed as Homo sapiens) [compound 413] | +++
11 | 412: peptide found in IGF2BP3 (gene looked up) (QEILTQVKQ; listed as Homo sapiens) [compound 412] | +++
12 | 88: peptide found in CCR5 (gene looked up) (VVHAVFALK; listed as Homo sapiens) [compound 88] | +
13 | 218: peptide found in CD70 (gene looked up) (TIASQRLTPL; listed as Homo sapiens) [compound 218] | ++
14 | 183: peptide found in ETV1 (gene looked up) (YEKGIMQKV; listed as Homo sapiens) [compound 183] | ++
15 | 309: peptide found in EYA2 (gene looked up) (FPQSQYPQY; listed as Homo sapiens) [compound 309] | +++
16 | 160: peptide found in MSLN (gene looked up) (YPKARLAF; listed as Homo sapiens) [compound 160] | ++
17 | 266: peptide found in IGF2BP1 (gene looked up) (ISYSGQFLVK; listed as Homo sapiens) [compound 266] | +++
18 | 313: peptide found in HTR3A (gene looked up) (KVKSDRSVF; listed as Homo sapiens) [compound 313] | +++
19 | 37: peptide found in MUC16 (gene looked up) (RPLFQKSSM; listed as Homo sapiens) [compound 37] | +++
20 | 122: peptide found in EYA2 (gene looked up) (YPGFPQSQY; listed as Homo sapiens) [compound 122] | +++
21 | 187: peptide found in FOLR1 (gene looked up) (GEAQTRIAW; listed as Homo sapiens) [compound 187] | ++
22 | 220: peptide found in FOLR1 (gene looked up) (RMTTQLLLL; listed as Homo sapiens) [compound 220] | ++
23 | 234: peptide found in MUC16 (gene looked up) (GVATRVDAI; listed as Homo sapiens) [compound 234] | +++
24 | 177: peptide found in BCAT1 (gene looked up) (TEVGTMNLF; listed as Homo sapiens) [compound 177] | ++
25 | 198: peptide found in MSLN (gene looked up) (QEAARAAL; listed as Homo sapiens) [compound 198] | ++
26 | 61: peptide found in CD70 (gene looked up) (YMVHIQVTL; listed as Homo sapiens) [compound 61] | ++
27 | 128: peptide found in KLK14 (gene looked up) (YPRTITPGM; listed as Homo sapiens) [compound 128] | +
28 | 290: peptide found in MYO3B (gene looked up) (DMDEEIEAEY; listed as Homo sapiens) [compound 290] | +++
29 | 70: peptide found in MUC16 (gene looked up) (VLQGLLRSL; listed as Homo sapiens) [compound 70] | +++
30 | 26: peptide found in MYO3B (gene looked up) (RISEYLLEK; listed as Homo sapiens) [compound 26] | +++

These substances were tested on ovarian cancer tissue samples (assay: Identification of tumor associated peptides presented on the cell surface (HLA immunoprecipitation, LC-MS); presentation across tumor types). Conditions: tumor types on which the peptide was found presented (HLA immunoprecipitation, LC-MS); abbreviations in table footnote.
Parameters: species or system human

Row | Substance | Peptide Presentation on tumor types
31 | 147 (APRWFPQPTVV; listed as Homo sapiens) [compound 147] | BRCA
32 | 123 (KPSESIYSAL; listed as Homo sapiens) [compound 123] | BRCA, CRC, HNSCC, MEL, NHL, NSCLC, OSCAR, SCLC, UBC
33 | 369 (FPHSEMTTV; listed as Homo sapiens) [compound 369] | PACA, UEC
34 | 106 (AAFVPLLLK; listed as Homo sapiens) [compound 106] | AML, BRCA, NHL, NSCLC, SCLC
35 | 34 (LPRGPLASLL; listed as Homo sapiens) [compound 34] | HNSCC, NSCLC, OSCAR, PACA, SCLC
36 | 21 (AVRKPIVLK; listed as Homo sapiens) [compound 21] | AML, BRCA, CCC, CRC, GBC, GBM, GC, HCC, HNSCC, MEL, NHL, NSCLC, OSCAR, PACA, RCC, SCLC, UBC, UEC
37 | 419 (HEFGHVLGL; listed as Homo sapiens) [compound 419] | BRCA, CCC, CRC, GC, HNSCC, MEL, NSCLC, OSCAR, PACA, UEC
38 | 156 (HVKEKFLL; listed as Homo sapiens) [compound 156] | CCC, HNSCC
39 | 446 (GRIVAFFSF; listed as Homo sapiens) [compound 446] | AML, BRCA, CRC, HCC, HNSCC, MEL, NHL, NSCLC, OSCAR, PACA, PRCA, SCLC, UBC, UEC
40 | 457 (NAAAAANAQVY; listed as Homo sapiens) [compound 457] | BRCA, NSCLC, UEC
41 | 445 (LHITPGTAY; listed as Homo sapiens) [compound 445] | HCC, PRCA

For some assays here: For expression read-outs the peptide stands for its source gene, whose mRNA was measured; the gene is not named for every peptide.
